B1: 154F10G8 (murine hybridoma antibody) (antibody, V domains shown)
VH: QVQLQQPGAELVKPGASVKLSCKASGYTFTSYWITWVKQRPGQGLEWIGDIYPGSGSTFYNEKFKSEATLTVDTSSSTAYMQLSSLTSEDSAVFYCSTETTLGYWGQGTTLTVSS
VL: DVLMTQTPLSLPVSLGDQASISCRSSQSIVHNNGNTYLEWYLQKPGQSPKLLIYKVSNRFSGVPDRFSGSGSGTDFTLKISRVEAEDLGVYYCFQGSHVPFTFGSGTKLEIK
B2: 154F10G8 mouse-human chimeric antibody (antibody, human IgG4, V domains shown)
VH: QVQLQQPGAELVKPGASVKLSCKASGYTFTSYWITWVKQRPGQGLEWIGDIYPGSGSTFYNEKFKSEATLTVDTSSSTAYMQLSSLTSEDSAVFYCSTETTLGYWGQGTTLTVSS
VL: DVLMTQTPLSLPVSLGDQASISCRSSQSIVHNNGNTYLEWYLQKPGQSPKLLIYKVSNRFSGVPDRFSGSGSGTDFTLKISRVEAEDLGVYYCFQGSHVPFTFGSGTKLEIK
B3: 147D7H2 (murine hybridoma antibody) (antibody, V domains shown)
VH: EVQLQQSGAELVKPGASVKLSCTASGFNIKDYFIHWVKQRTEQGLEWIGRIDTEDGETKYAPKFQGKATITIDTSSNTAYLYFSSLTSEDTAMYYCARYGNYVAMDYWGQGTSVTVSS
VL: QIVLTQSPALMSASPGEKVTMTCSASSSVSYMFWYQQKPSSSPKPWIYLTSKLASGVPARFSGSGSGTSYSLTISSVEAEDAATYYCQQWNSNPYTFGGGTKLEIK
B4: 151G3B11 mouse-human chimeric antibody (antibody, human IgG4, V domains shown)
VH: EVHLQQSGAELVKPGASVKLSCTASGFNIKDYYMHWVKQRTEQGLEWIGRIDPEDGETKYAPKFQGQATITADTSSNTANLQLSSLTSEDTAVYYCARYGNFPDYWGPGTTLTVSS
VL: QIVLTQSPALMSASPGEKVTMTCSASSSVSYMYWYQQKPRSSPKPWIYLTSKLASGVPARFSGSGSGTSYSLTISSMEAEDAATYYCQQWNSNPYTFGGGTKLEIK
B5: 147D7H2 mouse-human chimeric antibody (antibody, human IgG4, V domains shown)
VH: EVQLQQSGAELVKPGASVKLSCTASGFNIKDYFIHWVKQRTEQGLEWIGRIDTEDGETKYAPKFQGKATITIDTSSNTAYLYFSSLTSEDTAMYYCARYGNYVAMDYWGQGTSVTVSS
VL: QIVLTQSPALMSASPGEKVTMTCSASSSVSYMFWYQQKPSSSPKPWIYLTSKLASGVPARFSGSGSGTSYSLTISSVEAEDAATYYCQQWNSNPYTFGGGTKLEIK
B6: 151G3B11 (murine hybridoma antibody) (antibody, V domains shown)
VH: EVHLQQSGAELVKPGASVKLSCTASGFNIKDYYMHWVKQRTEQGLEWIGRIDPEDGETKYAPKFQGQATITADTSSNTANLQLSSLTSEDTAVYYCARYGNFPDYWGPGTTLTVSS
VL: QIVLTQSPALMSASPGEKVTMTCSASSSVSYMYWYQQKPRSSPKPWIYLTSKLASGVPARFSGSGSGTSYSLTISSMEAEDAATYYCQQWNSNPYTFGGGTKLEIK

These are yes or no findings as the source states them, for the method shown. Binding calls can cover weak binding; strength is not graded here.

The assay deals with recombinant monkey IL-5 (monkey (cynomolgus macaques)). The assay is described as follows: ELISA.
Regarding B1, the binding result is “binds”. Consider B2, for which the binding result was “binds”. Regarding B3, the binding entry is reported as “binds”.

On to B4, for which the binding result is recorded as “binds”. Consider B5, for which the binding result was “binds”. In the case of B6, the binding entry was “binds”.
